# Measured values as given in PubChem BioAssay AID445 (National Center for Advancing Translational Sciences (NCATS), 2006).
# This is one part of the list. Shown are side measurements of this screen, not its main read-out; they come without a call. Most of these compounds were active or inconclusive in the main read-out, so they are no random draw. Words in brackets tell the shape of the fitted curve; partial curves, single points and poor fits give uncertain potencies.
# Test: IkB Signaling
# Conditions: ABC-DLBCL IkBa-CBG/CBR dual luciferase ratio (green luciferase fused to IkBa over red control in OCI-Ly3 lymphoma cells), 4 h; measured here: control luc red channel unless noted
# In short: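 Curves were fitted separately to fusion (green), unfused (red) and ratio luminescence, then classed by r2, magnitude and activity. Cells: OCI-Ly3, 4 h compound plus doxycycline at 37C; 10 uM MG-132 defined full response.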
row,SMILES,AC50
1,O=C(Nc1nnc(-c2ccccc2)o1)NC1CCCCC1,"6.31 µM [rising, single point] [measured here: IkB-luc green channel]"
2,Cc1cc(O)c(C(c2ccc(F)cc2)N2CCN(c3ccccc3)CC2)c(=O)n1Cc1ccco1 (stereo not given),"39.8 µM [falling, single point]"
3,O=C(CSc1nc2c(c(=O)[nH]1)CCC2)Nc1cccc(O)c1,"15.8 µM [falling, partial curve, poor fit]"
4,COc1ccc(OC)c(NC(=O)Nc2cccc(OCc3cc(=O)n4cc(C)ccc4n3)c2)c1,"0.398 µM [falling, full curve]"
5,CCOc1ccc(-n2ccnc2SCC(=O)NCc2ccc3c(c2)OCO3)cc1,"25.1 µM [falling, partial curve]"
6,Cc1ccc(N2CCN(c3ncnc4onc(-c5ccc(F)cc5)c34)CC2)c(C)c1,"7.94 µM [falling, single point]"
7,COc1ccc(-n2nnnc2C2CCN(S(=O)(=O)c3cc(Cl)ccc3OC)CC2)cc1,"3.98 µM [falling, partial curve]"
8,CCOC(=O)NCc1cc(-c2nn(C)c(=O)c3ccccc23)ccc1C,"20 µM [falling, partial curve]"
9,Cc1ccc(S(=O)(=O)NCCc2nnc3ccc(SCc4cccc(F)c4)nn23)cc1,"39.8 µM [falling, single point]"
10,CCN(CC)c1ccc(NC(=O)CN2CCN(S(=O)(=O)c3ccc(C(C)C)cc3)CC2)cc1,"25.1 µM [falling, partial curve]"
11,COc1cc(NC(=O)Cn2c(=O)n(Cc3ccccc3)c(=O)c3oc4ccccc4c32)cc(OC)c1,"6.31 µM [falling, partial curve]"
12,CCOC(=O)C1CCCN(C(=O)c2sc3nc(-c4ccc(OC)cc4)cn3c2C)C1 (stereo not given),"3.98 µM [falling, partial curve]"
13,Cc1cc(-c2ccc(S(=O)(=O)Nc3ccccc3C)cc2)on1,"7.94 µM [falling, partial curve]"
14,CC(C)Cn1c(SC(C)C(=O)Nc2ccc3c(c2)OCCO3)nc2ccccc2c1=O (stereo not given),"10 µM [falling, partial curve]"
15,COc1ccc(-c2noc(CC(=O)N(C)c3ccccc3F)n2)cc1,"39.8 µM [falling, single point]"
16,Cc1nc(N2CCOCC2)c2c(C(=O)N3CCN(c4cc(Cl)ccc4C)CC3)c(C)oc2n1,"20 µM [falling, partial curve]"
17,COc1ccc(-n2cc(C(=O)NCCc3ccc(C)cc3)c3ccccc3c2=O)cc1,"10 µM [falling, partial curve]"
18,CC1CCCCN1C(=O)CSc1nc2ccccc2nc1Cc1ccccc1 (stereo not given),"31.6 µM [falling, single point]"
19,CCOc1ccc(N2C(=O)c3[nH]nc(-c4ccccc4)c3C2c2ccc(O)c(OC)c2)cc1 (stereo not given),"39.8 µM [falling, partial curve, poor fit]"
20,COC(=O)Nc1c(-c2ccccc2)nc2ccc(C)cn12,"25.1 µM [falling, partial curve]"

row,SMILES,AC50
1,COc1ccc(OC)c(NC(=O)Cn2nc3c(cc2=O)CCCC3)c1,"0.0631 µM [rising, full curve]"
2,COc1ccc(CCNS(=O)(=O)c2ccc3c(c2)c(=O)n(C)c(=O)n3C)cc1OC,"39.8 µM [falling, single point]"
3,Cc1ccc(NC(=O)c2nc(S(C)(=O)=O)ncc2N(Cc2cccc(F)c2)Cc2ccco2)cc1C,"2 µM [falling, full curve]"
4,CCOc1ccccc1N1CCN(CC(O)COc2ccc3c(C)cc(=O)oc3c2)CC1 (stereo not given),"15.8 µM [falling, partial curve]"
5,O=C(CSc1ccccc1)Nc1ccc(S(=O)(=O)NCC2CCCO2)cc1 (stereo not given),"12.6 µM [falling, partial curve]"
6,COc1ccc(N2CCN(C(=O)C(C)(C)Oc3ccc(Cl)cc3)CC2)cc1,"15.8 µM [falling, partial curve]"
7,Cc1ccc(CNC(=O)c2oc3ccc(S(=O)(=O)N4CCCC(C)C4)cc3c2C)cc1 (stereo not given),"3.16 µM [falling, full curve]"
8,Cc1ccc2c(CC(=O)N3CCN(c4cccc(Cl)c4)CC3)coc2c1,"39.8 µM [falling, single point]"
9,CCCCNc1ccc(-c2nc(-c3ccccc3)no2)cc1[N+](=O)[O-],"5.01 µM [falling, partial curve]"
10,COc1ccc(C2C(=O)N(C3CCC(C)CC3)CC(=O)N2Cc2ccc(C)cc2)cc1OC (stereo not given),"0.158 µM [rising, full curve, poor fit]"
11,C=CCOC(=O)CCC(=O)Nc1cc(OC)nc(OC)n1,"15.8 µM [falling, partial curve]"
12,Cc1cc(C)cc(NC(=O)Cn2nnc(C(=O)NCCc3ccccc3)c2N)c1,"15.8 µM [rising, partial curve]"
13,CCOc1ccc(C(=O)NCCc2sc(-c3ccc(C)cc3)nc2C)cc1,"39.8 µM [falling, single point]"
14,O=C(Nc1nc2c(s1)CCc1ccccc1-2)c1ccco1,"5.01 µM [falling, partial curve]"
15,COc1cccc(OCCSc2nnc3sc4ccccc4n23)c1,"25.1 µM [falling, partial curve]"
16,CC1CCC(NC(=O)c2ccc3c(c2)N(Cc2ccccc2F)C(=O)c2ccccc2S3)CC1 (stereo not given),"0.794 µM [rising, full curve]"
17,CC1CCN(S(=O)(=O)c2ccc3c(c2)N(CC(=O)NCc2ccccc2Cl)C(=O)CS3)CC1,"25.1 µM [falling, single point]"
18,O=C(Nc1ccc2c(c1)OCO2)C1CCCN(c2nc3ccccc3s2)C1 (stereo not given),"31.6 µM [falling, partial curve]"
19,Cc1ccc(N2CC(NC(=O)Cc3cccs3)CC2=O)cc1 (stereo not given),"25.1 µM [rising, partial curve, poor fit]"
20,CC1CCN(CC(=O)N2CCCc3c2c(=O)oc2ccc(OCc4ccccc4)cc32)CC1,"31.6 µM [falling, partial curve]"

# Some of the entries so far, as tab-separated lines.
row	SMILES	AC50
7	Cc1ccc(CNC(=O)c2oc3ccc(S(=O)(=O)N4CCCC(C)C4)cc3c2C)cc1 (stereo not given)	3.16 µM [falling, full curve]
8	Cc1ccc2c(CC(=O)N3CCN(c4cccc(Cl)c4)CC3)coc2c1	39.8 µM [falling, single point]
9	CCCCNc1ccc(-c2nc(-c3ccccc3)no2)cc1[N+](=O)[O-]	5.01 µM [falling, partial curve]
10	COc1ccc(C2C(=O)N(C3CCC(C)CC3)CC(=O)N2Cc2ccc(C)cc2)cc1OC (stereo not given)	0.158 µM [rising, full curve, poor fit]
11	C=CCOC(=O)CCC(=O)Nc1cc(OC)nc(OC)n1	15.8 µM [falling, partial curve]
12	Cc1cc(C)cc(NC(=O)Cn2nnc(C(=O)NCCc3ccccc3)c2N)c1	15.8 µM [rising, partial curve]
13	CCOc1ccc(C(=O)NCCc2sc(-c3ccc(C)cc3)nc2C)cc1	39.8 µM [falling, single point]
14	O=C(Nc1nc2c(s1)CCc1ccccc1-2)c1ccco1	5.01 µM [falling, partial curve]
